Results as given in the supplement of paper PMC6078165.
Values are relative to the signal before dosing, not to a vehicle control; the signal also falls without drug.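 Labels refer to human fibroblasts, largely primary: uterine (C12385, HUF), lung (H6013), bone (Hs27A), adrenal (HADF), skin (WS1), plus mammary HMF and breast cancer-associated Hs343T. Cancer lines are basal-like or mesenchymal-like triple-negative breast cancer. The paper counts as hits responses shifting over 3x the replicate standard deviation. The tissue of the other fibroblasts is not given here.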

Test system: Hs578T
Experiment: relative JC-1 red fluorescence (viability) vs pre-drug, coculture with fibroblast (fraction); higher = more viable cancer cells
Experimental: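 JC-1 labelled TNBC cells cocultured 1:1 (1,500 cells each) with CellTrace Violet stained primary or stromal fibroblasts in 384-well plates in FluoroBrite medium, treated with one of 42 anticancer drugs at 0.1, 1, 10 or 100 uM. JC-1 red fluorescence (mitochondrial integrity in cancer cells only) was read by plate reader every 8 h for 72 h. Values are normalised to each well's pre-drug value. The stock of one drug was tenfold lower, so its dose labels may be too high.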

C=C1C[C@@H]2[C@H](CC[C@]3(C)C(=O)CC[C@@H]23)[C@@]2(C)C=CC(=O)C=C12 [Exemestane]
relative JC-1 red fluorescence
Settings	8 h	16 h	24 h	32 h	40 h	48 h	56 h	64 h	72 h
0.1 µM	0.871	0.772	0.7248	0.703	0.638	0.599	0.569	0.531	0.517
1 µM	0.883	0.776	0.71	0.674	0.616	0.57	0.544	0.502	0.48

relative JC-1 red fluorescence
Settings	8 h	16 h	24 h	32 h	40 h	48 h	56 h	64 h	72 h
0.1 µM, coculture fibroblast: C12385	0.832	0.724	0.647	0.555	0.486	0.444	0.408	0.399	0.396
0.1 µM, coculture fibroblast: H6013	0.9072	0.807	0.778	0.773	0.756	0.76	0.75	0.745	0.712
0.1 µM, coculture fibroblast: H6019	0.793	0.702	0.688	0.598	0.561	0.543	0.507	0.49	0.468
0.1 µM, coculture fibroblast: H6076	0.917	0.812	0.784	0.772	0.727	0.7276	0.7072	0.7045	0.7073
0.1 µM, coculture fibroblast: H6231	0.916	0.828	0.723	0.674	0.605	0.582	0.53	0.51	0.49
0.1 µM, coculture fibroblast: HADF	0.934	0.864	0.803	0.76	0.726	0.698	0.668	0.664	0.64
0.1 µM, coculture fibroblast: HCFa	0.893	0.78	0.712	0.656	0.599	0.572	0.533	0.515	0.477
0.1 µM, coculture fibroblast: HCPF	0.92473	0.836	0.799	0.776	0.722	0.699	0.67	0.633	0.611
0.1 µM, coculture fibroblast: HHSteC	0.92	0.803	0.751	0.70852	0.659	0.632	0.604	0.582	0.54
0.1 µM, coculture fibroblast: HMF	0.923	0.826	0.763	0.725	0.661	0.628	0.59	0.567	0.55
0.1 µM, coculture fibroblast: HPFa	0.949	0.885	0.805	0.759	0.701	0.659	0.615	0.586	0.5264
0.1 µM, coculture fibroblast: HUF	0.8568	0.766	0.7114	0.598	0.534	0.495	0.458	0.444	0.435
0.1 µM, coculture fibroblast: Hs27A	0.887	0.824	0.744	0.685	0.63	0.612	0.57	0.556	0.507
0.1 µM, coculture fibroblast: Hs343T	0.924	0.781	0.729	0.7087	0.636	0.597	0.554	0.53	0.519
0.1 µM, coculture fibroblast: WS1	0.84	0.706	0.647	0.547	0.477	0.444	0.406	0.402	0.4
1 µM, coculture fibroblast: C12385	0.835	0.697	0.711	0.628	0.5753	0.5492	0.525	0.53062	0.5354
1 µM, coculture fibroblast: H6013	0.865	0.7979	0.7619	0.725	0.681	0.667	0.641	0.631	0.601
1 µM, coculture fibroblast: H6019	0.823	0.7258	0.712	0.607	0.561	0.533	0.499	0.479	0.453
1 µM, coculture fibroblast: H6076	0.91	0.892	0.843	0.821	0.777	0.761	0.745	0.725	0.726
1 µM, coculture fibroblast: H6231	0.862	0.766	0.702	0.666	0.606	0.5793	0.5446	0.5214	0.515
1 µM, coculture fibroblast: HADF	0.901	0.826	0.75	0.682	0.619	0.582	0.538	0.524	0.494
1 µM, coculture fibroblast: HCFa	0.862	0.768	0.725	0.668	0.609	0.583	0.547	0.525	0.482
1 µM, coculture fibroblast: HCPF	0.911	0.833	0.788	0.754	0.69	0.667	0.652	0.614	0.595
1 µM, coculture fibroblast: HHSteC	0.916	0.838	0.791	0.748	0.706	0.673	0.646	0.622	0.579
1 µM, coculture fibroblast: HMF	0.859	0.762	0.711	0.692	0.636	0.614	0.5863	0.57	0.567
1 µM, coculture fibroblast: HPFa	0.951	0.869	0.789	0.713	0.649	0.606	0.553	0.522	0.467
1 µM, coculture fibroblast: HUF	0.855	0.754	0.695	0.599	0.526	0.482	0.442	0.413	0.401
1 µM, coculture fibroblast: Hs27A	0.876	0.819	0.79	0.764	0.716	0.702	0.672	0.668	0.616
1 µM, coculture fibroblast: Hs343T	0.9284	0.821	0.763	0.721	0.642	0.603	0.567	0.5316	0.5229
1 µM, coculture fibroblast: WS1	0.823	0.706	0.649	0.551	0.5	0.475	0.444	0.439	0.438
